Test results published in the supplement of paper PMC12595434, “Development of retinoid nuclear receptor pathway antagonists through targeting aldehyde dehydrogenase 1A3” (iScience, 2025).
The list shows a part of the results. The data scatter; read single values as rough.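 Many melting curves are irregular; where none melted, Tm was taken as 64 °C.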

The chains behind the UniProt entries cited, without tags or fusion partners. Where a name states a change or a piece, a line headed by the entry shows the natural chain unless it says otherwise.
UniProt Q9BZ72: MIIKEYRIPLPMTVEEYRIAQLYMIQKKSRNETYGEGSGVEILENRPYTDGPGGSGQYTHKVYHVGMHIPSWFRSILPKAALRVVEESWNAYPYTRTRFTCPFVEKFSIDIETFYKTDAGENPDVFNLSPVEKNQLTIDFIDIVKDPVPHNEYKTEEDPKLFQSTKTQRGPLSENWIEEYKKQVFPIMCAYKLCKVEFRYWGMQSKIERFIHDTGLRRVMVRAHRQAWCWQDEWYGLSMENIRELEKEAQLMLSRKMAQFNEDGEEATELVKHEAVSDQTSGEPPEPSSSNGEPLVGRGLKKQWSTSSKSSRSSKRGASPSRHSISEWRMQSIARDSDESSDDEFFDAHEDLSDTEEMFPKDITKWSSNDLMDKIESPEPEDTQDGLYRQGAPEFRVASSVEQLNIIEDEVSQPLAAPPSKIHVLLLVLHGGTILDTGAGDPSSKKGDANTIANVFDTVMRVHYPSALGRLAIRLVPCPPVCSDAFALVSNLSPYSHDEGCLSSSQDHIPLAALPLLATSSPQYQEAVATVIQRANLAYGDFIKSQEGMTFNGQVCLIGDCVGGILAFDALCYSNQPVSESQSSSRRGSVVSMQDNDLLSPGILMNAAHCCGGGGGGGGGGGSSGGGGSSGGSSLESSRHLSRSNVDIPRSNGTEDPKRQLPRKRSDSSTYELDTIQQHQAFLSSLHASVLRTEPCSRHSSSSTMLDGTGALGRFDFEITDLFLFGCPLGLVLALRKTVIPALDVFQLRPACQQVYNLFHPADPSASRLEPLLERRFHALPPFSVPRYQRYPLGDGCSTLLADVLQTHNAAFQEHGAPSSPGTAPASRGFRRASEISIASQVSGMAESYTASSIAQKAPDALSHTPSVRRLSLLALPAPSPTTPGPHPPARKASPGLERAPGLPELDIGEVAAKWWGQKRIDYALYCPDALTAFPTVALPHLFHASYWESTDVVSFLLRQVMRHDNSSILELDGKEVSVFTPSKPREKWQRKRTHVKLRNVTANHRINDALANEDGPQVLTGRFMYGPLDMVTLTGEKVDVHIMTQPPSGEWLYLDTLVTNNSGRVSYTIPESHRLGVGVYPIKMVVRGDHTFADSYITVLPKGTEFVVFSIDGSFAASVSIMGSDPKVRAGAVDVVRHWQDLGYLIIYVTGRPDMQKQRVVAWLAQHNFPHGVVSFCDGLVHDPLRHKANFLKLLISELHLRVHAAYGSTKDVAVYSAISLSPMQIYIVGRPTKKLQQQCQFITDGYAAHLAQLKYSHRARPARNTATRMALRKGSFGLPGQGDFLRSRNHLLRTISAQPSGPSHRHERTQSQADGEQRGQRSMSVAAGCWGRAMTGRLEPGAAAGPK
UniProt Q9H0N5: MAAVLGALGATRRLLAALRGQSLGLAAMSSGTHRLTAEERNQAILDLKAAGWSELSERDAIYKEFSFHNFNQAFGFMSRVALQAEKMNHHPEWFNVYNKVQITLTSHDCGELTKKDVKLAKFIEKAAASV
UniProt Q9H7P9: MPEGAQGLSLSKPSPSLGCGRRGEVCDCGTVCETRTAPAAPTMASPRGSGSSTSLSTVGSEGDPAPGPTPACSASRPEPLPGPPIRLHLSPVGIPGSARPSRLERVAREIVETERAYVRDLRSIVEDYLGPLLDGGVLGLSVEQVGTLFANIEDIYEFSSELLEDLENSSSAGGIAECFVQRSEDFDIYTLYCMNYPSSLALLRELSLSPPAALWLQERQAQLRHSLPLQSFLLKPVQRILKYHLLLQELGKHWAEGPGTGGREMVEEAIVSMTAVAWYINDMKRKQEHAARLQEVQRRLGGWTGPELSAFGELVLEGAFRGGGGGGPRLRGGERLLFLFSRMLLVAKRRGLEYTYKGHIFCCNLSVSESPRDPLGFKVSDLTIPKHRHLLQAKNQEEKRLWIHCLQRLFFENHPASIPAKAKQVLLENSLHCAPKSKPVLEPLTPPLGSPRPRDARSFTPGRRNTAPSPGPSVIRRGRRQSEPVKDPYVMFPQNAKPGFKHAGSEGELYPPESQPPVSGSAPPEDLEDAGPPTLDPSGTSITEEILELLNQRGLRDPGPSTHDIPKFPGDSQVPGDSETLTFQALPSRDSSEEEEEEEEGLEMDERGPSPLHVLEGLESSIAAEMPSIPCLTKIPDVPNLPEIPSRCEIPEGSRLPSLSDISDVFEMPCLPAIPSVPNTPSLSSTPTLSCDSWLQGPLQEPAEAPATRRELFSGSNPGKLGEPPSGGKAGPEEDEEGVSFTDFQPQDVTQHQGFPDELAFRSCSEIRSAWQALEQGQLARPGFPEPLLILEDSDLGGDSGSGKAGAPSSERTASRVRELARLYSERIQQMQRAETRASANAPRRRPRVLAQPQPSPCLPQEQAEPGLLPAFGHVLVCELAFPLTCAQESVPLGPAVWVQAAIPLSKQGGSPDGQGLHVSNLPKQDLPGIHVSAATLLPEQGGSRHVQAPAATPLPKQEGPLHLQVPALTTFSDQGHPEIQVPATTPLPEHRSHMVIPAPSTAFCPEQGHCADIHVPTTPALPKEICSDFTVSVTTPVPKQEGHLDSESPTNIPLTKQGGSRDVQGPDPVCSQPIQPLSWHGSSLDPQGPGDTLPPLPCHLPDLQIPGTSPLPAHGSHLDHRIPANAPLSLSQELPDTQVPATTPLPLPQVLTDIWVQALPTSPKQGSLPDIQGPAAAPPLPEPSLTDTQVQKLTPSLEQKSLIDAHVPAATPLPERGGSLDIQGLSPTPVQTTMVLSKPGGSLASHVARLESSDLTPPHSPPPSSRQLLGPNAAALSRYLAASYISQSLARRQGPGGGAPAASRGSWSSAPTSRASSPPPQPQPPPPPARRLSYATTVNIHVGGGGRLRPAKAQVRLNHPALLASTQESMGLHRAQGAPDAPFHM
UniProt Q9H2F5, whole entry: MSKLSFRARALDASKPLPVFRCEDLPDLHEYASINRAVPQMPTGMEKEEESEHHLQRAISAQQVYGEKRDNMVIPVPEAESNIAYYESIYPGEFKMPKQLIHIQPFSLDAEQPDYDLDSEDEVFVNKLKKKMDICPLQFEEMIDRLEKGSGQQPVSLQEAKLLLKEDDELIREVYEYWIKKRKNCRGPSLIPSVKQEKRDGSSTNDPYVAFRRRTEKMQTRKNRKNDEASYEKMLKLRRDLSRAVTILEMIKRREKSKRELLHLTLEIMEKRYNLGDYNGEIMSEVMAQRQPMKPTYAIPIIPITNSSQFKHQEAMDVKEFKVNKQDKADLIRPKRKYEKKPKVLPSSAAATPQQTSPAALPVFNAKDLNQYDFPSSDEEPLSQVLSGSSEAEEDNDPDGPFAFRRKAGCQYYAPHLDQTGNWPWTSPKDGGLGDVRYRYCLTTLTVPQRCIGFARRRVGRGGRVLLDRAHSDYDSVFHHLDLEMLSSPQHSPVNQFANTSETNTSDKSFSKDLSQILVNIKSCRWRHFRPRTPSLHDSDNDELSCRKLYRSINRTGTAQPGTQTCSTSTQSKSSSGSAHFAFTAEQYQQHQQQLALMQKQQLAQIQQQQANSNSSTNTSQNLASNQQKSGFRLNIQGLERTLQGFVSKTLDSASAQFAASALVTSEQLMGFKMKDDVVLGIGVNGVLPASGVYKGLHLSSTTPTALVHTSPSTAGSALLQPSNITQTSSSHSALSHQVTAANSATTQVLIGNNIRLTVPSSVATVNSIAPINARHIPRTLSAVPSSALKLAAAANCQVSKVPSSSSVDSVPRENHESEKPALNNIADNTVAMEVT
UniProt Q9C0D7: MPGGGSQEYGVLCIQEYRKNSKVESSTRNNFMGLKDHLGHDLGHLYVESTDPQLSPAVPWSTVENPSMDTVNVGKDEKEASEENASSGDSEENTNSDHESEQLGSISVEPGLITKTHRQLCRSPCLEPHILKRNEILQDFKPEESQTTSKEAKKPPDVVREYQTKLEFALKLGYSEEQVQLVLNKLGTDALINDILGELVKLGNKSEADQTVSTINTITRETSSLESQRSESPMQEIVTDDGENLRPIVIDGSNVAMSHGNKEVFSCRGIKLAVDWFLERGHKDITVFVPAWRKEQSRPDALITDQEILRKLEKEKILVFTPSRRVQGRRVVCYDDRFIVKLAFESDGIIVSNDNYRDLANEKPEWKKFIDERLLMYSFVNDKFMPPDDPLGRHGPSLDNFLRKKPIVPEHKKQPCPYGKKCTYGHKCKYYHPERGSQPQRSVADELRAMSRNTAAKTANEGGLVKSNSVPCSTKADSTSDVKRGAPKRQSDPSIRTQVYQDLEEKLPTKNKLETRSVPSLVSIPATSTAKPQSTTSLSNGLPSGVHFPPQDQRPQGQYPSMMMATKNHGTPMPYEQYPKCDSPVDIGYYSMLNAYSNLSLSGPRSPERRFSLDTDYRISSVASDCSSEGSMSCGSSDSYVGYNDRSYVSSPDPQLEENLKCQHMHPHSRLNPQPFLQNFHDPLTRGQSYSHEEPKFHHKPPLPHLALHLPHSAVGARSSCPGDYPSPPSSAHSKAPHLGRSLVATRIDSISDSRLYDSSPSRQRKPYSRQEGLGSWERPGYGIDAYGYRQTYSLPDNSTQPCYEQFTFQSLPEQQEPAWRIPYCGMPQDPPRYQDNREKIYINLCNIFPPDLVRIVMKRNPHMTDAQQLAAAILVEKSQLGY
UniProt Q9H2K0, whole entry, looked up: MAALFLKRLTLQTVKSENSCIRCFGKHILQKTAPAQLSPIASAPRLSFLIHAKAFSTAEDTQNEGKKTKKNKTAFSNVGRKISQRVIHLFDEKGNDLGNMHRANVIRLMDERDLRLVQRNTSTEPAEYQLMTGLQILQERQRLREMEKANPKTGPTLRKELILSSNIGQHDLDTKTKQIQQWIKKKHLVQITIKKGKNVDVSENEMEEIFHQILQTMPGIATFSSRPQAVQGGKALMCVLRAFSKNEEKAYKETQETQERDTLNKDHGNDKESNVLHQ
UniProt Q9H3S7: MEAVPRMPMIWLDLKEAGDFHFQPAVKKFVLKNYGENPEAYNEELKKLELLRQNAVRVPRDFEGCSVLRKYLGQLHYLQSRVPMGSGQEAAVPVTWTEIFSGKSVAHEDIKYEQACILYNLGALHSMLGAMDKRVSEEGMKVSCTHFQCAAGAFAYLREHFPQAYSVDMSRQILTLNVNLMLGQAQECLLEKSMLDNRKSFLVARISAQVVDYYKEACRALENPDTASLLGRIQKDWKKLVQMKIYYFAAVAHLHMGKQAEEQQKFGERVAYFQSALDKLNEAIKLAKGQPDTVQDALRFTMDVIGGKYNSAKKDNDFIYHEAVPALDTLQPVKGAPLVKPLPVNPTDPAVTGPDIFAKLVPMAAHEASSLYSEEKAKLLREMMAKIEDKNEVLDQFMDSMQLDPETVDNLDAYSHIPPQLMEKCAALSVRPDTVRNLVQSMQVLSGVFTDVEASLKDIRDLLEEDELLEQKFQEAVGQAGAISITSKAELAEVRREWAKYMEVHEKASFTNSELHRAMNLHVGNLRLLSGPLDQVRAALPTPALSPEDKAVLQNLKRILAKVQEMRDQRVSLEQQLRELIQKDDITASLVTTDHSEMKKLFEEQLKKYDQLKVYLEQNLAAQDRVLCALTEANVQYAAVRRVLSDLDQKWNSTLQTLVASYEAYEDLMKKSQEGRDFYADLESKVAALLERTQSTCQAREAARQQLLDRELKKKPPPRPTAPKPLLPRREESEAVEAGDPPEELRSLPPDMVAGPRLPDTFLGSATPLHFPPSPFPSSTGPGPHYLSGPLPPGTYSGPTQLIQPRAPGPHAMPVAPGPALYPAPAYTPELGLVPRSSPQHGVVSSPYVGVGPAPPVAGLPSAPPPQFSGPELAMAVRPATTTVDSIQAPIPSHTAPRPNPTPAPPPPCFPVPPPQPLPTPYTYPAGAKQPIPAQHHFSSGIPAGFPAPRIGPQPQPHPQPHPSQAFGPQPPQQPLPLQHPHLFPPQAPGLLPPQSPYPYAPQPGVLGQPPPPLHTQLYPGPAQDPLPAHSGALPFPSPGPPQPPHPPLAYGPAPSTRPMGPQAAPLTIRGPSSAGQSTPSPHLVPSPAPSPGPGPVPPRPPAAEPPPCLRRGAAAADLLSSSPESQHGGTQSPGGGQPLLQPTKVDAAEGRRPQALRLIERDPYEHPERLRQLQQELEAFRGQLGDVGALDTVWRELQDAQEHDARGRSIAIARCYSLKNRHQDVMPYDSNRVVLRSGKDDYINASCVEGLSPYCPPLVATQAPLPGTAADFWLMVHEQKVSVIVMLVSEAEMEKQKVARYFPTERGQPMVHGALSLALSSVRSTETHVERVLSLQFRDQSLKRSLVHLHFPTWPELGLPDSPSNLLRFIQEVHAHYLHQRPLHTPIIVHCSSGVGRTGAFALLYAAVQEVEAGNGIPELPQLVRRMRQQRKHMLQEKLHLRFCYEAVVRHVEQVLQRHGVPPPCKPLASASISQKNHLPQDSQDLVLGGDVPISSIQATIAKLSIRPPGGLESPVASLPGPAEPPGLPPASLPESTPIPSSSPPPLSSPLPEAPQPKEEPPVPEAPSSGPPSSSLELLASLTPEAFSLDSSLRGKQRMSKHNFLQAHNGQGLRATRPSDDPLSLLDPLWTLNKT

Compound: CCc1cnccc1C(=O)Nc1cc2c(cc1F)NC(=O)CC2
Test: melting temperature shift (DMSO Tm minus MBE1-treated Tm) in cellular thermal proteome profiling; higher = less thermal stabilization by MBE1 (negative = stabilized by MBE1)
Settings: A375

Target | melting temperature shift (MBE1 concentration: 1 uM) | melting temperature shift (MBE1 concentration: 100 nM)
CEP44 (UniProt Q9C0F1) | -0.287 °C | 
UniProt Q9H4G4 |  | -0.874 °C
PITHD1 (UniProt Q9GZP4) | -2.42 °C | 
MKRN2 (UniProt Q9H000) | -0.905 °C | 0.256 °C
NIF3L1 (UniProt Q9GZT8) | -2.52 °C | 
UniProt Q9BZ72 |  | 1.24 °C
UniProt Q9H0N5 | -3.04 °C | 
UniProt Q9H5Y7 |  | 2.54 °C
TMX4 (UniProt Q9H1E5) | 0.511 °C | -0.939 °C
WNK3 (UniProt Q9BYP7) | -0.248 °C | -0.818 °C
UniProt Q9H706 | -0.0611 °C | 0.556 °C
DDX47 (UniProt Q9H0S4) | 0.922 °C | 1.09 °C
UniProt Q9H6L5 | -2.6 °C | 
UniProt Q9H7P9 | -2.42 °C | -1.83 °C
UniProt Q9C040 | -0.0183 °C | 0.342 °C
ARL6 (UniProt Q9H0F7) | 0.727 °C | -0.165 °C
COA1 (UniProt Q9GZY4) | 1.1 °C | -0.597 °C
UniProt Q9BZ95 | -0.923 °C | -1.57 °C
ACTR6 (UniProt Q9GZN1) | -0.616 °C | -0.772 °C
UniProt Q9H5V8 |  | -8.02 °C
EHD1 (UniProt Q9H4M9) | 0.36 °C | 0.629 °C

An excerpt of these results, as tab-separated lines:
Target	melting temperature shift (MBE1 concentration: 1 uM)	melting temperature shift (MBE1 concentration: 100 nM)
UniProt Q9H5V8		-8.02 °C
EHD1 (UniProt Q9H4M9)	0.36 °C	0.629 °C

Remaining list, next part:

Target | melting temperature shift (MBE1 concentration: 1 uM) | melting temperature shift (MBE1 concentration: 100 nM)
HAUS4 (UniProt Q9H6D7) | -1.44 °C | -0.118 °C
MTG2 (UniProt Q9H4K7) | -0.519 °C | -0.653 °C
UniProt Q9H2F5 |  | 0.0916 °C
CRNKL1 (UniProt Q9BZJ0) | -0.314 °C | -0.199 °C
POLR1E (UniProt Q9GZS1) | -0.564 °C | -0.448 °C
UniProt Q9H7P6 | -0.647 °C | -0.659 °C
ZDHHC5 (UniProt Q9C0B5) | -1.09 °C | 
HDHD2 (UniProt Q9H0R4) | -1.82 °C | 
UniProt Q9H6U8 | 0.0469 °C | -0.597 °C
UniProt Q9C0D7 |  | -0.183 °C
BICC1 (UniProt Q9H694) | -1.87 °C | 
ACAD9 (UniProt Q9H845) | 0.623 °C | -1.14 °C
LDAH (UniProt Q9H6V9) | 0.354 °C | -0.385 °C
RAB3GAP2 (UniProt Q9H2M9) | -0.767 °C | -0.913 °C
MTIF3 (UniProt Q9H2K0) | -0.0335 °C | -0.208 °C
UniProt Q9BZM5 |  | -5.74 °C
PTPN23 (UniProt Q9H3S7) | -0.729 °C | -0.63 °C
UniProt Q9H0F6 | -0.747 °C | -1.91 °C
MFF (UniProt Q9GZY8) | 0.336 °C | 0.94 °C
RWDD1 (UniProt Q9H446) | -0.832 °C | -0.946 °C
